According to US20030186888A1, “Diastereo analog of peptide SPFK-amide with selective anti-microbial activity and a method thereof” (priority 2002, published 2003):
“Also recorded” adds a separate entry of the source. Not every detail of the peptide structures is certain; ends, links or a residue may be inferred. Square brackets hold non-standard residues; d marks the D form. Ends that are not written are not given here. Peptide text beside a SMILES is read from it.

Key:
microorganisms tested = assay: Antimicrobial activity (growth inhibition, MIC); assay type: cell-based; conditions: growth of the microorganisms tested
Description: (§1) In further embodiment of the present invention, for determining antimicrobial activity, antimicrobial activity was assayed as follows: Different concentrations of peptides were added to 1 ml of synthetic medium [KH2PO4, 10.5 g; K2HPC>4, 4.5 g; (NH4)2SO4, 1 g; MgSO4, 0.1 g; L-arginine, 0.1 g and glucose 1% for one litre of medium] for E. coli or nutrient broth for other microorganisms, containing an inocula of the test organism adjusted to ˜10^6 CFU/ml. Microbial growth was determined by monitoring the increase in ODeoo after incubating under aerobic conditions at 37° C. for 6-8 h (30° C. for P. aeruginosa). The bactericidal activity of the peptides was determined by plating suitably diluted cultures after incubation with the peptides on nutrient agar plates. The plates were incubated at 37° C. for 18 h for colony counting. Outer membrane permeabilization assays were done by fluorescent monitoring of uptake of N-phenyl-1-N-naphthyl amine (NPN) (26). […] The excitation monochromator was set at 350 nm and emission at 420 nm was continuously monitored after addition of the peptide from an aqueous stock solution. […] Inner membrane permeability of E. coli W 160.37 was monitored by measuring the p-galactosidase activity in preinduced cells (with 5×10′^4 M IPTG), in the presence of different concentration of the peptide using 0-nitro phenyl-3-D-galactoside (ONPG)(27).

E. coli = assay: Bactericidal activity by plating and colony counting; assay type: cell-based; conditions: at their MICs
Description: as §1

Molecule	antimicrobial activity / MIC (in words) (microorganisms tested)	bactericidal activity at MIC (in words) (E. coli)
CC[C@H](C)[C@H](NC(=O)[C@H](Cc1c[nH]c2ccccc12)NC(=O)[C@H](CCCCN)NC(=O)[C@H](CO)NC(=O)[C@@H](CC(C)C)NC(=O)[C@H](Cc1ccccc1)NC(=O)[C@@H](NC(=O)[C@H](CCCCN)NC(=O)[C@@H](CC(C)C)NC(=O)[C@H](CC(C)C)NC(=O)[C@H](CCCCN)NC(=O)[C@@H]1CCCN1)[C@@H](C)O)C(=O)NCC(=O)O [DSac] (H-PKL[dL]KTF[dL]SKWIG-OH)	totally inactive; also recorded: failed to exhibit any antimicrobial activity	
PKLLKTFLSKWIG [SPFK]		completely bactericidal
